Experimental data published in PMC8494922.
These are yes or no findings as the source states them, for the method shown. In cells and extracts the contact can be indirect. Some results given as binding are weak or reduced against the parent protein; the word gives no strength. Blank lines part the entries; values can stand above or below the substance they belong to.

Sequences of proteins named here, by UniProt entry; tags and fusion partners are left off. A change or cut given only in a name is not applied to a line headed by its entry.
UniProt Q8BK63: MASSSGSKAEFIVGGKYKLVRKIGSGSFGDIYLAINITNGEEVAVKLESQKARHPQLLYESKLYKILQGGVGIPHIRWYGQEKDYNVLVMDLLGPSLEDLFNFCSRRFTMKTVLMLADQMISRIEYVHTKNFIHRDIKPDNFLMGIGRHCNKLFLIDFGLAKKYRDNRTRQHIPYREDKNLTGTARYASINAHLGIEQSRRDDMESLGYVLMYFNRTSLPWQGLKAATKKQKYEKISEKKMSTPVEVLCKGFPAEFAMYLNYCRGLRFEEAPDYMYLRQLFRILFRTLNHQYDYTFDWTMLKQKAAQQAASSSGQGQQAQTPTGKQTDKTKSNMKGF
UniProt P46737: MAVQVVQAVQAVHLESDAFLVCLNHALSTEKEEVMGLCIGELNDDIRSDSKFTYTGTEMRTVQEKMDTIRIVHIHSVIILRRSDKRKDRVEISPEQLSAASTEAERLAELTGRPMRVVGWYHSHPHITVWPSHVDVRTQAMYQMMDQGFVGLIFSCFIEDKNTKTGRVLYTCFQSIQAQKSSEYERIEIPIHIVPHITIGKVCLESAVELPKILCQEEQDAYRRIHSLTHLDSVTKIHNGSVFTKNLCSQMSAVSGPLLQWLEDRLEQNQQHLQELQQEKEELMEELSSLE
UniProt P46736: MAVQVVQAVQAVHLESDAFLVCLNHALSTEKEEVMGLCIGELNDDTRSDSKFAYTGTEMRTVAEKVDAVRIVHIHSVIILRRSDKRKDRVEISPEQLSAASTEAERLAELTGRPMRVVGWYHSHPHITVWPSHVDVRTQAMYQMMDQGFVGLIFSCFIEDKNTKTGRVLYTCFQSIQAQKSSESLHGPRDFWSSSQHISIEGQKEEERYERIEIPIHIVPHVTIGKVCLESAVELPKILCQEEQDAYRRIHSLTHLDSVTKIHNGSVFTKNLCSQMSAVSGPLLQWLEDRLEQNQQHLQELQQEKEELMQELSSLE
UniProt Q8R4B8: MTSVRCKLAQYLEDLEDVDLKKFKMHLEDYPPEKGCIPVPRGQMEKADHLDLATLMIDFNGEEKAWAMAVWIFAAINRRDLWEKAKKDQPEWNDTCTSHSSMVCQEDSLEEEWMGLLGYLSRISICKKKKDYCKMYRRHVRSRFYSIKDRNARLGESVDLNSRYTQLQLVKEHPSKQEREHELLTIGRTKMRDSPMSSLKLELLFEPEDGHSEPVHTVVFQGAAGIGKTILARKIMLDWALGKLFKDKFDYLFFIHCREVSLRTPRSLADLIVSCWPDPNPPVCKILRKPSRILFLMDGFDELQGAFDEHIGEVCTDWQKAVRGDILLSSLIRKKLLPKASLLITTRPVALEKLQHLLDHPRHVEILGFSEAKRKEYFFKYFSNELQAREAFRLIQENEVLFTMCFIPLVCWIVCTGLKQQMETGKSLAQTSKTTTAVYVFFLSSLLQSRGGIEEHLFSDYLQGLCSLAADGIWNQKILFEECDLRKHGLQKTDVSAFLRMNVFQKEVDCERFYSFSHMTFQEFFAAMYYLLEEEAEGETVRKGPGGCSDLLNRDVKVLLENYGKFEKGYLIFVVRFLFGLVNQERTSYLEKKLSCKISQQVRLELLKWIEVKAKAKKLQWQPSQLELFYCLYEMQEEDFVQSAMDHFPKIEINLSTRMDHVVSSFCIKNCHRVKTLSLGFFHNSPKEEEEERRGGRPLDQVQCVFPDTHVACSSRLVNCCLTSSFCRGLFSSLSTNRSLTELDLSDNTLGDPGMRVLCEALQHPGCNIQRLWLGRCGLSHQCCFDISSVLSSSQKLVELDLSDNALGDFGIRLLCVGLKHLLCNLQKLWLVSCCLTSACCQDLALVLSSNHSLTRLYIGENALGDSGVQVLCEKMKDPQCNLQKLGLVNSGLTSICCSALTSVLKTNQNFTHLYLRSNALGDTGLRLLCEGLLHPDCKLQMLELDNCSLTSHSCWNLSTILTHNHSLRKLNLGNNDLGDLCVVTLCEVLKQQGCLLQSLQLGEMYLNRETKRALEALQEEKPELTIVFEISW
UniProt Q96P20: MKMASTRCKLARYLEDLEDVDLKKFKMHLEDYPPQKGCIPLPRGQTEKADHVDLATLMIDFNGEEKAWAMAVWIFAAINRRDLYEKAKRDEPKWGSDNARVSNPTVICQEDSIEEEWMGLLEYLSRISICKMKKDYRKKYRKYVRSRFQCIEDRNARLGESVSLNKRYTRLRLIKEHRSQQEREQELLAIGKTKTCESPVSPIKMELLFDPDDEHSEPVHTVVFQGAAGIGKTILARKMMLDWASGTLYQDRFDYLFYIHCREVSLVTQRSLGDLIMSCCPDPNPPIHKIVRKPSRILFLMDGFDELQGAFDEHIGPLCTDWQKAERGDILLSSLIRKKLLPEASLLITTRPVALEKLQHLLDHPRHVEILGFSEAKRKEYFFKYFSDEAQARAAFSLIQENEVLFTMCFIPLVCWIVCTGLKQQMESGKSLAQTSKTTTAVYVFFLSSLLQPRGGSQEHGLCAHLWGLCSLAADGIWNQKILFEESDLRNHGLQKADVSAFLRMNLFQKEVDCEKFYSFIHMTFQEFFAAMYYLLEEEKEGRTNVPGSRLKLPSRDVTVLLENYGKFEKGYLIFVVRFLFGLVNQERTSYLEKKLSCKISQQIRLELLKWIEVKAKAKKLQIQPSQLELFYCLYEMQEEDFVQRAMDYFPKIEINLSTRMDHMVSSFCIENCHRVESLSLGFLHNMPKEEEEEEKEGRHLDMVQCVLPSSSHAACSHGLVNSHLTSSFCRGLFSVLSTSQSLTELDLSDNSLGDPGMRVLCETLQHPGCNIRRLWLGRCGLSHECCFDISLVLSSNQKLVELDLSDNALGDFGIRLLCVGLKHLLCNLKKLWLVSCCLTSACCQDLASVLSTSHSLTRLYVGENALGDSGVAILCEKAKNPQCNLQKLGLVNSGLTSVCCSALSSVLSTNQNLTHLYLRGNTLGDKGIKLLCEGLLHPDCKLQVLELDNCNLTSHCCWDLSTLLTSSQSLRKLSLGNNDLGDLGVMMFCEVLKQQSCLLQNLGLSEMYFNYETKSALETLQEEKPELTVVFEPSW

Tests used:
[1] = molecular target: CSNK1A1 (mouse) (mouse (endogenous in BMDMs)) (UniProt Q8BK63); experiment: co-IP; endogenous CSNK1A1 IP (anti-CSNK1A1 301-991A, Protein A/G resin) from BMDMs treated with LPS (50 ng/ml, 6 h); 150 mM Tris-HCl pH 7.4, 300 mM NaCl, 1% NP-40; NLRP3 by WB
[2] = molecular target: BRCC3 (mouse) (mouse (endogenous in BMDMs)) (UniProt P46737); experiment: co-IP; endogenous BRCC3 IP (anti-BRCC3, ProteinA-Dynabeads) from primary BMDMs or immortalized WT BMDMs treated with LPS (6 h) and nigericin (30 min); 1% NP-40, 150 mM NaCl; NLRP3 by WB
[3] = molecular target: BRCC3 (human, endogenous in U937) (human (endogenous in U937)) (UniProt P46736); experiment: co-IP; endogenous BRCC3 IP (anti-BRCC3, ProteinA-Dynabeads) from NLRP3-deficient U937 reconstituted with NLRP3 mutants; PMA and doxycycline (16 h), LPS (5 h), nigericin (20 min); NLRP3 by WB

binding [1]: binds
Substance: NLRP3 (mouse, wild type) (from UniProt Q8R4B8 1-1033)

Substance: NLRP3 S803D (mouse, knock-in) (from UniProt Q8R4B8 1-1033)
binding [2]: no binding

binding [3]: no binding
Substance: NLRP3 S806D (human, doxycycline-inducible in NLRP3-deficient U937) (from UniProt Q96P20 1-1036)
